Some entries share one result that the patent states for a list of compounds.
Experiments:
HRAS = HRAS (Homo sapiens, UniProt P01112); test: Cellular Phospho-ERK AlphaLISA assay, MEF-HRAS cells; type: cell-based, mouse; conditions: RAS-less MEFs expressing HRAS only; read-out: relative IC50, phospho-ERK, MEF-HRAS
NRAS = NRAS (Homo sapiens, UniProt P01111); test: Cellular Phospho-ERK AlphaLISA assay, MEF-NRAS cells; type: cell-based, mouse; conditions: RAS-less MEFs expressing NRAS only; read-out: relative IC50, phospho-ERK, MEF-NRAS

Structure (SMILES)	IC50 (HRAS) [nM]	IC50 (NRAS) [nM]
N#Cc1c(N)sc2c(F)cnc(-c3c4c(c5cnc(N6CC(N7CC(O)C7)C6)nc5c3F)COC4)c12 [Example 112B, 2-Amino-7-fluoro-4-(5-fluoro-3-(3-hydroxy-[1,3′-biazetidin]-1′-yl)-7,9-dihydrofuro[3,4-f]quinazolin-6-yl)thieno[3,2-c]pyridine-3-carbonitrile]	> 2000	> 2000
N#Cc1c(N)sc2c(F)cnc(-c3c4c(c5cnc(N6CC[C@@H](N7CCC(C#N)CC7)C6)nc5c3F)COC4)c12 [Example 113D, 2-Amino-4-(3-((R)-3-(4-cyanopiperidin-1-yl)pyrrolidin-1-yl)-5-fluoro-7,9-dihydrofuro[3,4-f]quinazolin-6-yl)-7-fluorothieno[3,2-c]pyridine-3-carbonitrile]	> 2000	> 2000
N#Cc1c(N)sc2c(F)cnc(-c3c4c(c5cnc(N6CC[C@@H](N7CCC(O)CC7)C6)nc5c3F)COC4)c12 [Example 114D, 2-Amino-7-fluoro-4-(5-fluoro-3-((R)-3-(4-hydroxypiperidin-1-yl)pyrrolidin-1-yl)-7,9-dihydrofuro[3,4-f]quinazolin-6-yl)thieno[3,2-c]pyridine-3-carbonitrile]	> 2000	> 2000
CC1(O)CCN([C@@H]2CCN(c3ncc4c5c(c(-c6ncc(F)c7sc(N)c(C#N)c67)c(F)c4n3)COC5)C2)CC1 [Example 117D, 2-Amino-7-fluoro-4-(5-fluoro-3-((R)-3-(4-hydroxy-4-methylpiperidin-1-yl)pyrrolidin-1-yl)-7,9-dihydrofuro[3,4-f]quinazolin-6-yl)thieno[3,2-c]pyridine-3-carbonitrile]	> 2000	> 2000
CC(C)N(C)[C@H]1CN(c2ncc3c4c(c(-c5ncc(Cl)c6sc(N)c(C#N)c56)c(F)c3n2)COC4)C[C@@H]1O [Example 118C, 2-Amino-7-chloro-4-(5-fluoro-3-((3S,4S)-3-hydroxy-4-(isopropyl(methyl)amino)pyrrolidin-1-yl)-7,9-dihydrofuro[3,4-f]quinazolin-6-yl)thieno[3,2-c]pyridine-3-carbonitrile]	> 2000	> 2000
CN1CC[C@@H]2[C@H]1CN2c1ncc2c3c(c(-c4ncc(F)c5sc(N)c(C#N)c45)c(F)c2n1)COC3 [Example 121C, 2-Amino-7-fluoro-4-(5-fluoro-3-((1R,5R)-2-methyl-2,6-diazabicyclo-[3.2.0]heptan-6-yl)-7,9-dihydrofuro[3,4-f]quin-azolin-6-yl)thieno[3,2-c]pyridine-3-carbonitrile]	> 2000	> 2000
CN(C)C[C@@]12C[C@@H]1CN(c1ncc3c4c(c(-c5ncc(F)c6sc(N)c(C#N)c56)c(F)c3n1)COC4)C2 [Example 123B, 2-Amino-4-(3-((1R,5S)-1-((dimethylamino)methyl)-3-azabicyclo[3.1.0]hexan-3-yl)-5-fluoro-7,9-dihydrofuro[3,4-f]quinazolin-6-yl)-7-fluorothieno[3,2-c]pyridine-3-carbonitrile]	> 2000	> 2000
CN(C)C[C@]12C[C@H]1CN(c1ncc3c4c(c(-c5ncc(F)c6sc(N)c(C#N)c56)c(F)c3n1)COC4)C2 [Example 124B, 2-Amino-4-(3-((1S,5R)-1-((dimethylamino)methyl)-3-azabicyclo[3.1.0]hexan-3-yl)-5-fluoro-7,9-dihydrofuro[3,4-f]quinazolin-6-yl)-7-fluorothieno[3,2-c]pyridine-3-carbonitrile]	> 2000	> 2000
CN1C[C@@H]2CN([C@@H]3CCN(c4ncc5c6c(c(-c7ncc(F)c8sc(N)c(C#N)c78)c(F)c5n4)COC6)C3)C[C@@H]2C1 [Example 139D, 2-Amino-7-fluoro-4-(5-fluoro-3-((R)-3-((3aR,6aS)-5-methylhexahydropyrrolo [3,4-c]pyrrol-2(1H)-yl)pyrrolidin-1-yl)-7,9-dihydrofuro[3,4-f]quinazolin-6-yl)thieno[3,2-c]pyridine-3-carbonitrile]	> 2000	> 2000
CN1C[C@@H]2CN([C@H]3CCN(c4ncc5c6c(c(-c7ncc(F)c8sc(N)c(C#N)c78)c(F)c5n4)COC6)C3)C[C@@H]2C1 [Example 140D, 2-Amino-7-fluoro-4-(5-fluoro-3-((S)-3-((3aR,6aS)-5-methylhexahydropyrrolo [3,4-c]pyrrol-2(1H)-yl)pyrrolidin-1-yl)-7,9-dihydrofuro[3,4-f]quinazolin-6-yl)thieno[3,2-c]pyridine-3-carbonitrile]	> 2000	> 2000
CN(C)[C@H]1CN(c2ncc3c4c(c(-c5ncc(F)c6sc(N)c(C#N)c56)c(F)c3n2)COC4)CC12CC2 [Example 144B, 2-Amino-4-(3-((R)-7-(dimethylamino)-5-azaspiro[2.4]heptan-5-yl)-5-fluoro-7,9-dihydro-furo[3,4-f]quinazolin-6-yl)-7-fluorothieno[3,2-c]pyridine-3-carbonitrile]	> 2000	> 2000
CN1CC2(CCN([C@@H]3CCN(c4ncc5c6c(c(-c7ncc(F)c8sc(N)c(C#N)c78)c(F)c5n4)COC6)C3)C2)C1 [Example 144D, 2-Amino-7-fluoro-4-(5-fluoro-3-((R)-3-(2-methyl-2,6-diazaspiro[3.4]octan-6-yl)pyrrolidin-1-yl)-7,9-dihydrofuro[3,4-f]quinazolin-6-yl)thieno[3,2-c]pyridine-3-carbonitrile]	> 2000	> 2000
N#Cc1c(N)sc2c(F)cnc(-c3c4c(c5cnc(N6CC[C@@H](N7CCC8(CC7)COC8)C6)nc5c3F)COC4)c12 [Example 147D, 4-(3-((R)-3-(2-Oxa-7-azaspiro[3.5]nonan-7-yl)pyrrolidin-1-yl)-5-fluoro-7,9-dihydrofuro[3,4-f]quinazolin-6-yl)-2-amino-7-fluorothieno[3,2-c]pyridine-3-carbonitrile]	> 2000	> 2000
CN1CCC(OC2CCN(c3ncc4c5c(c(-c6ncc(F)c7sc(N)c(C#N)c67)c(F)c4n3)COC5)C2)CC1 (centres unmarked) [Example 164D, 2-Amino-7-fluoro-4-(5-fluoro-3-(3-((1-methylpiperidin-4-yl)oxy)pyrrolidin-1-yl)-7,9-dihydrofuro[3,4-f]quinazolin-6-yl)thieno[3,2-c]pyridine-3-carbonitrile]	> 2000	> 2000
CC(C)NC1CN(c2ncc3c4c(c(-c5ncc(F)c6sc(N)c(C#N)c56)c(F)c3n2)COC4)CC1(C)O (centres unmarked) [Example 188D, 2-Amino-7-fluoro-4-(5-fluoro-3-(3-hydroxy-4-(isopropylamino)-3-methylpyrrolidin-1-yl)-7,9-dihydrofuro[3,4-f]quinazolin-6-yl)thieno[3,2-c]pyridine-3-carbonitrile]	> 2000	> 2000
CN(C)[C@@H]1CN(c2ncc3c4c(c(-c5ncc(F)c6sc(N)c(C#N)c56)c(F)c3n2)COC4)C[C@H]1C(C)(C)O [Example 194D, 2-Amino-4-(3-((3S,4R)-3-(dimethylamino)-4-(2-hydroxypropan-2-yl)pyrrolidin-1-yl)-5-fluoro-7,9-dihydrofuro[3,4-f]quinazolin-6-yl)-7-fluorothieno[3,2-c]pyridine-3-carbonitrile]	> 2000	> 2000
CO[C@@H]1CN(c2ncc3c4c(c(-c5ncc(F)c6sc(N)c(C#N)c56)c(F)c3n2)COC4)C[C@@H]1NC(C)C [Example 195D, 2-Amino-7-fluoro-4-(5-fluoro-3-((3S,4R)-3-(isopropylamino)-4-methoxypyrrolidin-1-yl)-7,9-dihydrofuro[3,4-f]quinazolin-6-yl)thieno[3,2-c]pyridine-3-carbonitrile]	> 2000	> 2000
[2H]C([2H])([2H])C(N[C@H]1CN(c2ncc3c4c(c(-c5ncc(F)c6sc(N)c(C#N)c56)c(F)c3n2)COC4)C[C@H]1O)C([2H])([2H])[2H] [Example 225D, 2-Amino-7-fluoro-4-(5-fluoro-3-((3R,4S)-3-hydroxy-4-((propan-2-yl-1,1,1,3,3,3-d6)amino)pyrrolidin-1-yl)-7,9-dihydrofuro[3,4-f]quinazolin-6-yl)thieno[3,2-c]pyridine-3-carbonitrile]	> 2000	> 2000
[2H]C([2H])([2H])C(N[C@@H]1CN(c2ncc3c4c(c(-c5ncc(F)c6sc(N)c(C#N)c56)c(F)c3n2)COC4)C[C@H]1O)C([2H])([2H])[2H] [Example 226D, 2-Amino-7-fluoro-4-(5-fluoro-3-((3R,4R)-3-hydroxy-4-((propan-2-yl-1,1,1,3,3,3-d6)amino)pyrrolidin-1-yl)-7,9-dihydrofuro[3,4-f]quinazolin-6-yl)thieno[3,2-c]pyridine-3-carbonitrile]	> 2000	> 2000
[2H]C([2H])([2H])N1CCN([C@H]2CCN(c3ncc4c5c(c(-c6ncc(F)c7sc(N)c(C#N)c67)c(F)c4n3)COC5)C2)CC1 [Example 228D, 2-Amino-7-fluoro-4-(5-fluoro-3-((S)-3-(4-(methyl-d3)piperazin-1-yl)pyrrolidin-1-yl)-7,9-dihydrofuro[3,4-f]quinazolin-6-yl)thieno[3,2-c]pyridine-3-carbonitrile]	> 2000	> 2000
[2H]C([2H])([2H])N1CCN([C@@H]2CCN(c3ncc4c5c(c(-c6ncc(F)c7sc(N)c(C#N)c67)c(F)c4n3)COC5)C2)CC1 [Example 229D, 2-Amino-7-fluoro-4-(5-fluoro-3-((R)-3-(4-(methyl-d3)piperazin-1-yl)pyrrolidin-1-yl)-7,9-dihydrofuro[3,4-f]quinazolin-6-yl)thieno[3,2-c]pyridine-3-carbonitrile]	> 2000	> 2000
N#Cc1c(N)sc2c(F)cnc(-c3c4c(c5cnc(N6C[C@H](N)[C@@H](F)C6)nc5c3F)COC4)c12 [Example 232D, 2-Amino-4-(3-((3S,4S)-3-amino-4-fluoropyrrolidin-1-yl)-5-fluoro-7,9-dihydrofuro[3,4-f]quinazolin-6-yl)-7-fluorothieno[3,2-c]pyridine-3-carbonitrile]	> 2000	> 2000

— US12723053B2, “KRas inhibitors” (ELI LILLY AND COMPANY, priority 2023, dated 2026)
